Results reported in publication PMC12548414.
In all, about 1,600 compounds went through this assay and about 20 (1%) showed an effect of 50% or more. The list shows a part of the results.

What follows are compounds tested on T1, E. coli pLC1021 (luc-trpAt trans-translation reporter). Conditions: reporter signal, KKL-35 = 100%; rise means trans-translation inhibition; 2 h, 20 µM.
T1 construct: pLC1021 luc-trpAt reporter strain
Set-up: species or system Escherichia coli pLC1021; luc-trpAt non-stop luciferase reporter; luminescence rises when trans-translation is inhibited; normalized to KKL-35 and DMSO
Summary of the method: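 Luminescence (560 nm, 10 min after Bright-Glo) reports luciferase that escapes trans-translation tagging, measured after 2 h room-temperature treatment with 20 µM compound. Each plate was scaled between DMSO (negative) and 20 µM KKL-35 (positive) controls. Compounds scoring one standard deviation above the median counted as positive; at least two biological repeats.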
`Cc1ccc2occ(CN(CCCn3ccnc3)Cc3ccccc3Cl)c(=O)c2c1` [KKL-1038] was tested, and the “% activation” value was 1%.
With `Cc1cc(OCCCn2ccnc2)ccc1Cl` [KKL-1063] the “% activation” value was 5%.
`Cc1ccc(S/C=C\C(=O)c2ccccc2)cc1` [KKL-0963] was tested, and the “% activation” value was 0%.
For `Cc1ccc2cc(C(c3nnnn3C(C)(C)C)N3CCN(c4cccc(C)c4C)CC3)c(O)nc2c1` (stereo not shown) [KKL-0698], the “% activation” value was 0%.
With `CC(=O)O[C@H]1CC2C(COC(=O)CC(C)C)=CO[C@@H](OC(=O)CC(C)C)C2[C@@]12CO2` (stereo partly shown) [KKL-0301] the “% activation” value was 1%.
`CCCC(=O)N1c2ccc(C(O)CN3CCc4[nH]c5c(C)cccc5c4C3)cc2CC1C` (stereo not shown) [KKL-1196] was tested, and the “% activation” value was 0%.
For `Oc1ccc(Br)cc1-c1nc(-c2cccs2)c(-c2cccs2)[nH]1` [KKL-1281], the “% activation” value was 6%.
`CCOC(=O)C1=C(C)N(c2ccc(Br)cc2)C(=O)C1` [KKL-0854] was tested, and the “% activation” value was 0%.
In the case of `O=C(CCNc1cccc(Cl)c1)c1ccco1` [KKL-1395], the “% activation” value is reported as 0%.
For `Cc1ccc(-n2cc(CNCCn3nc(C)cc3C)c(-c3ccc(F)cc3)n2)cc1` [KKL-1132], the “% activation” value was 2%.
`O=C(Oc1ccc(Cl)cc1)c1ccc(N2CCOCC2)c([N+](=O)[O-])c1` [KKL-0943] was tested, and the “% activation” value was 0%.
With `CCn1c(CN2CCC3(CC2)Nc2cc(OC)ccc2-n2cccc23)nc2ccccc21` [KKL-1235] the “% activation” value was 6%.
For `CC12CCC(C(=O)Oc3cccc4cccnc34)(CC1=O)C2(C)C` (stereo not shown) [KKL-1043], the “% activation” value was 6%.
`O=C(Nc1ncnc2sc3c(c12)CCCC3)c1ccc(F)cc1` [KKL-1368] was tested, and the “% activation” value was 0%.
In the case of `Cc1c(C(=O)Oc2cccc3cccnc23)cccc1[N+](=O)[O-]` [KKL-0952], the “% activation” value is reported as 8%.
`CN(Cc1ccccc1)C(=S)NC(=O)c1cccs1` [KKL-1440] was tested, and the “% activation” value was 17%.
For `O=C(NC(=S)N1CCN(C/C=C/c2ccccc2)CC1)c1ccc(Cl)cc1` [KKL-0599], the “% activation” value was 33%.
For `O=C(NC(=S)N1CCCCCC1)c1ccc([N+](=O)[O-])cc1` [KKL-1266], the “% activation” value was 18%.
For `CCOC(=O)COc1ccc(-c2ccc(C)cc2)cc1` [KKL-1287], the “% activation” value was 0%.
In the case of `COc1ccccc1C1(O)CCN(Cc2cnn(-c3ccc(C)cc3)c2)CC1` [KKL-0553], the “% activation” value is reported as 7%.
For `Cc1ccc(C)c(N=Nc2nc3ccccc3n2C)c1` [KKL-0971], the “% activation” value was 0%.
`CCc1ccc(Oc2coc3cc(OC(C)C(=O)OC)ccc3c2=O)cc1` (stereo not shown) [KKL-0739] was tested, and the “% activation” value was 3%.
`CC(C)(C)C(=O)NC(=S)NNC(=O)C(c1ccccc1)c1ccccc1` [KKL-1073] was tested, and the “% activation” value was 16%.
With `Cn1c(COc2cccc3ccccc23)nnc1SCC(=O)OC1CCCCC1` [KKL-1623] the “% activation” value was 1%.
For `CC(C)c1ccc(-c2cncc(N3CCN(c4ccncc4)CC3)n2)cc1` [KKL-1773], the “% activation” value was 3%.
For `CN(c1ccccc1)c1ccc([N+](=O)[O-])c2nonc12` [KKL-1467], the “% activation” value was 0%.
In the case of `Cc1cccc(OCC(O)Cn2c(=N)n(CCN3CCCCC3)c3ccccc32)c1` (stereo not shown) [KKL-1515], the “% activation” value is reported as 16%.
For `Cc1cc2c(cc1C)N(Cc1ccc(C(C)(C)C)cc1)C1=NCCCN12` [KKL-0358], the “% activation” value was 0%.
For `COc1cc(SC)ccc1C(=O)N[C@H]1CCN2C(=O)N(c3ccc(Cl)cc3)C(=O)[C@@H]2C1` [KKL-1611], the “% activation” value was 0%.
`c1ccc(-c2nc3c(c(N4CCN(Cc5cc6ccccc6[nH]5)CC4)n2)CCC3)cc1` [KKL-0483] was tested, and the “% activation” value was 0%.
`CCCCCCCCCn1c2c(c(=N)c3c1CCC3)CCCC2` [KKL-0894] was tested, and the “% activation” value was 7%.
`COc1cc(CNC23CC4CC(CC(C4)C2)C3)ccc1OCc1ccccc1` [KKL-0755] was tested, and the “% activation” value was 4%.
With `COc1ccc(CN(CCCn2ccnc2)Cc2[nH]c3ccc(F)cc3c2C)cc1` [KKL-1036] the “% activation” value was 17%.
`CCOC(=O)c1cc(-c2ccccc2)sc1N=C(S)NC(C)c1ccncc1` (stereo not shown) [KKL-1534] was tested, and the “% activation” value was 0%.
In the case of `CC(C)N(C(=O)CNc1ccccc1Nc1ccccc1)c1ccccc1` [KKL-1812], the “% activation” value is reported as 1%.
`Nc1ccccc1Nc1ccc2c(c1)OCO2` [KKL-1857] was tested, and the “% activation” value was 2%.
For `CC(C)Cc1cc(C(=O)N2CCc3c([nH]c4ccccc34)C2c2ccccc2F)nc(N)n1` (stereo not shown) [KKL-0668], the “% activation” value was 0%.
`COC(=O)[C@@H]1Cc2c([nH]c3ccccc23)[C@H]2C[C@@H](N3CCOCC3)C[C@@H](c3ccc(OC(F)(F)F)cc3)N21` [KKL-0313] was tested, and the “% activation” value was 4%.
In the case of `COC(=O)COc1cccc(NC(=O)c2ccc(Cl)cc2)c1` [KKL-1563], the “% activation” value is reported as 7%.
`O=[N+]([O-])c1cc(O)c2ncccc2c1` [KKL-0003] was tested, and the “% activation” value was 46%.
With `COC(=O)C(Oc1ccc2c(c1)oc(=O)c1cc(OC)ccc12)c1ccccc1` (stereo not shown) [KKL-1506] the “% activation” value was 0%.
With `CCn1cc(C(=O)O)c(=O)c2cc(F)c(N3CCNCC3)cc21` [KKL-0831] the “% activation” value was 56%.
With `CSCCCNC(=O)C1CCN(c2nc(-c3ccccc3)nc3c2CCC3)CC1` [KKL-0658] the “% activation” value was 2%.
For `C=CCOc1ccccc1NC(=O)c1cnc(SC)nc1` [KKL-0671], the “% activation” value was 0%.
In the case of `CC(C)OC(=O)COc1ccc(-c2cnc(N(C)CCc3ccncc3)nc2)cc1` [KKL-1723], the “% activation” value is reported as 3%.
For `Cc1ccc(CN(CCCn2ccnc2)Cc2ccc(Cl)c(Cl)c2)o1` [KKL-1222], the “% activation” value was 14%.
`O=C(CC1Sc2ccc(Cl)cc2NC1=O)Nc1ccc([N+](=O)[O-])cc1` (stereo not shown) [KKL-0720] was tested, and the “% activation” value was 15%.
`COc1ccc(CC(=O)Nc2c(-c3cccs3)nc3cc(C)ccn23)cc1` [KKL-1805] was tested, and the “% activation” value was 0%.
In the case of `O=C(CC(O)(C(F)(F)F)C(F)(F)F)Nc1ccc(Cl)c(Cl)c1` [KKL-0624], the “% activation” value is reported as 36%.
In the case of `Cc1ccc(C(=O)/C=C\C(=O)c2ccc(C)cc2)cc1` [KKL-1050], the “% activation” value is reported as 0%.
In the case of `CC(=O)Nc1nc(NC(=O)/C=C/c2ccccc2)n(-c2ccccc2)n1` [KKL-1060], the “% activation” value is reported as 18%.
In the case of `O=c1cc(-c2c(F)c(F)c(F)c(F)c2F)oc2ccccc12` [KKL-0844], the “% activation” value is reported as 0%.
For `COc1ccccc1OCCCCn1c(C2CC2)nc2ccccc21` [KKL-1722], the “% activation” value was 5%.
For `CCCCc1cc(=O)oc2cc(OCC(=O)OCc3ccccc3)c(Cl)cc12` [KKL-0718], the “% activation” value was 0%.
For `COc1cc(C)c(-c2csc(NC(=O)c3cnc(SC)nc3)n2)cc1C` [KKL-0466], the “% activation” value was 0%.
With `COc1cc(/C=C/C(=O)c2ccc(F)cc2)cc(OC)c1OC` [KKL-1090] the “% activation” value was 0%.
In the case of `O=C1C(O)=C(c2ccccc2)C2CCCN12` (stereo not shown) [KKL-1601], the “% activation” value is reported as 0%.
With `CCOC(=O)COc1ccc(C(=O)NC2CCCCC2)cc1` [KKL-1468] the “% activation” value was 1%.
With `Cc1cccc(-c2cc3ncccc3c(NCc3ccccn3)n2)c1` [KKL-0684] the “% activation” value was 0%.
For `CCOC(=O)c1c(NC(=O)COc2ccc(C(C)C)cc2)sc2c1CCC2` [KKL-1530], the “% activation” value was 0%.
For `Cc1cc2nc(C3CCCN(C(=O)c4[nH]c5ccccc5c4C)C3)cc(C(F)(F)F)n2n1` (stereo not shown) [KKL-0511], the “% activation” value was 0%.
`Cc1cc(C)n2nc(C(=O)N3CCc4c([nH]c5ccccc45)C3c3ccc(F)cc3)cc2n1` (stereo not shown) [KKL-1149] was tested, and the “% activation” value was 3%.
With `COc1ccc(CN2CCCCC2C(=O)Nc2ccc(-n3cccn3)cc2)c(F)c1` (stereo not shown) [KKL-1153] the “% activation” value was 0%.
With `CCC(C)NCCCOc1ccc(Cl)c2ccccc12` (stereo not shown) [KKL-1428] the “% activation” value was 0%.
`O=C(NC1CCCCC1)c1cccc(N2C(=O)c3cccc4c([N+](=O)[O-])ccc(c34)C2=O)c1` [KKL-1416] was tested, and the “% activation” value was 0%.
In the case of `CC12CC3CC(C)(C1)CC(C(=O)Nc1nc4ccccc4s1)(C3)C2` [KKL-1343], the “% activation” value is reported as 2%.
For `Cc1cc2c(cc1C)C(O)CC1(CCN(CC(O)c3ccc4c(c3)CCC4)CC1)O2` (stereo not shown) [KKL-0699], the “% activation” value was 0%.
With `Cc1nn(-c2ccccc2)c2nc(O)c(CNC(c3ccccc3)c3ccco3)cc12` (stereo not shown) [KKL-0350] the “% activation” value was 0%.
For `COC(=O)[C@@H]1Cc2c([nH]c3ccccc23)[C@H]2C[C@H](NCCN3CCOCC3)C[C@@H](c3ccc(OC(F)(F)F)cc3)N21` [KKL-0308], the “% activation” value was 6%.
For `Cc1ccc(NC(=O)CC2COc3ccccc3O2)cc1Cl` (stereo not shown) [KKL-1586], the “% activation” value was 0%.
For `c1ccc(-c2csc(Nc3nc4cc5c(cc4s3)OCO5)n2)nc1` [KKL-1697], the “% activation” value was 0%.
In the case of `O=C(Nc1nc2ccc(F)cc2s1)c1ccccn1` [KKL-0813], the “% activation” value is reported as 0%.
With `O=C(Nc1cccc([N+](=O)[O-])c1)Nc1ccc(Cl)c(C(F)(F)F)c1` [KKL-1336] the “% activation” value was 0%.
With `O=C(/C=C/c1cn(CC(O)CN2CCCCCC2)c2ccccc12)c1cccs1` (stereo not shown) [KKL-0443] the “% activation” value was 0%.
In the case of `CCOC(=O)COc1ccc2cc(-c3nc4ccccc4s3)c(=O)oc2c1` [KKL-0772], the “% activation” value is reported as 2%.
In the case of `Cc1ccn2c(Nc3ccccc3)c(-c3ccccn3)nc2c1` [KKL-1521], the “% activation” value is reported as 0%.
For `COc1ccc(C(=O)CCN2CCCC(C)C2)cc1` (stereo not shown) [KKL-1093], the “% activation” value was 9%.
In the case of `Cc1cccc2sc(NC(=O)c3ccc(C(C)(C)C)cc3)nc12` [KKL-1490], the “% activation” value is reported as 2%.
In the case of `FC(F)(F)c1nnc2ccc(Cl)nn12` [KKL-1868], the “% activation” value is reported as 0%.
In the case of `CC(C)(C)c1cc(Cl)c(O)c(NC(=S)NC(=O)c2cccc3ccccc23)c1` [KKL-0905], the “% activation” value is reported as 0%.
For `Cc1nn(-c2ccc(C(F)(F)F)cc2)c(C)c1[C@@H]1C=C[C@@H](NCc2ccc(N(C)C)cc2)C1` [KKL-0309], the “% activation” value was 0%.
`CC(C)C(=O)N1CCN(c2ccc(NC(=O)c3ccc([N+](=O)[O-])o3)cc2)CC1` [KKL-1579] was tested, and the “% activation” value was 0%.
In the case of `Cc1cc2ncn(CC(O)COc3ccc(F)cc3)c2cc1C` (stereo not shown) [KKL-1261], the “% activation” value is reported as 3%.
`Fc1ccc(CNc2nc(-c3ccncc3)cc3ncccc23)cc1` [KKL-0447] was tested, and the “% activation” value was 0%.
For `Cc1cccc(OC(C)C(=O)Nc2ccc([N+](=O)[O-])cc2)c1C` (stereo not shown) [KKL-1509], the “% activation” value was 4%.
